Results are given in words; binding and its absence hold for the method and conditions named. Some results given as binding are weak or reduced against the parent protein; the word gives no strength.
Tests used:
[1] = molecular target: Recombinant aggregated ROR1 protein, AlexaFluor647-labeled (UniProt Q01973); assay: flow cytometry; CAR T cells stained with 5.3 µg/ml AlexaFluor647-labeled aggregated ROR1
[2] = molecular target: Recombinant aggregated ROR1 protein, AlexaFluor647-labeled (UniProt Q01973); assay: flow cytometry; CAR T cells stained with AlexaFluor647-labeled aggregated ROR1

By UniProt entry, the sequences of proteins in these tests, tags left out. Residues count along the entry.
UniProt Q01973, residues 30-403: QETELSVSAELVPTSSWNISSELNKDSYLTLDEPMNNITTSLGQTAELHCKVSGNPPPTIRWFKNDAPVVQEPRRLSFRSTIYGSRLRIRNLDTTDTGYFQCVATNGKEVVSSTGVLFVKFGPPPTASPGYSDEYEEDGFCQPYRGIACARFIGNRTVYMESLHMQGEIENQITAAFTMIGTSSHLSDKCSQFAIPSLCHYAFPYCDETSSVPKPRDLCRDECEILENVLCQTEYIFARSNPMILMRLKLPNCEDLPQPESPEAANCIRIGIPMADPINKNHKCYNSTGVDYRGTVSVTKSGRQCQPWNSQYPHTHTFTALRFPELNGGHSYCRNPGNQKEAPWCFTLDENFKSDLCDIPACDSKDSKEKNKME

B1: humanized 2A2 ROR1 CAR (other)
chain: EVQLVQSGAEVKKPGASVKVSCKASGYTFSDYEMHWVRQAPGQGLEWLGAIDPETGGTAYNQKFKGRVTMTGDTSISTAYMELSRLTSDDTAVYYCTGYYDYDSFTYWGQGTLVSVSSGGGGSGGGGSGGGGSDIQMTQSPSSLSTSVGDRVTITCKASQNVDAAVAWYQQKPGKAPKLLIYSASNRYTGVASRFSGSGSGTDFTFTISSLQSEDLADYFCQQYDIYPYTFGQGTKLEIKESKYGPPCPPCPMFWVLVVVGGVLACYSLLVTVAFIIFWVKRGRKKLLYIFKQPFMRPVQTTQEEDGCSCRFPEEEEGGCELRVKFSRSADAPAYQQGQNQLYNELNLGRREEYDVLDKRRGRDPEMGGKPRRKNPQEGLYNELQKDKMAEAYSEIGMKGERRRGKGHDGLYQGLSTATKDTYDALHMQALPPR
notes: Chimeric antigen receptor with an scFv targeting domain, expressed on primary human T cells after lentiviral transduction; also called h2A2 CAR; h2A2
[1]
  binding: binds
[2]
  binding: binds

Reference: patent US20200040058A1 (JULIUS MAXIMILIANS UNIVERSIT T W RZBURG, published 2020)
